Source: PubChem BioAssay AID504648 (National Center for Advancing Translational Sciences (NCATS), 2011)
“And” between values parts separate entries of the source, which are not always exact repeats. Identical values can stand only once. Out of some 390,000 compounds screened, about 610 (0.16%) were called active. Inconclusive results, whose numbers are uncertain, are shown with a selection of clear calls. Calls follow the shape of the dose curve; as a rule, active = well fitted inhibition curve with a large enough effect; inconclusive = small, poorly fitted or top-dose-only effect, or effect the other way, or another doubt; inactive = no such curve, though single readings can be large or run the other way. Potencies beside an inconclusive call are fits to weak or partial responses and may not hold up.

Experiment: Nrf2 qHTS screen for inhibitors: counterscreen for cytotoxicity
Conditions: A549 ARE-Fluc cells, CellTiter-Fluor viability, 18-24 h; series mostly up to 46 µM
Method in brief: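 Cytotoxicity counterscreen: CellTiter-Fluor fluorescence was measured in A549 ARE_Fluc cells after 18-24 h of compound exposure in a concentration series. The subsequent BugLite luminescent read reports ARE-luciferase activity.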
Potency is read from the fitted curve at half-maximal effect.

| SMILES | Potency |
| --- | --- |
| COc1ccc(/C(C)=N/NC(=O)OC(C)(C)C)cc1[N+](=O)[O-] | inactive |
| Cc1onc(-c2ccc(Br)cc2)c1C(=O)Nc1ccc(Br)cc1F | inconclusive: 25.9 µM [activator, partial curve] |
| COc1cccc(N2CCN(c3c(C#N)c(C(F)(F)F)nn3C)CC2)c1 | inactive |
| CCN1C(C(=O)c2ccccc2)=C(OC(=O)COc2ccccc2)c2ccccc2S1(=O)=O | active: 14.6 µM |
| COc1cc(CN2CCCC(C(=O)c3ccccc3SC)C2)cc(OC)c1 (configuration not stated) | inconclusive: 20.6 µM [falling, partial curve, poor fit] |
| CC(C)OCCCN(C)C1CCN(S(=O)(=O)c2csc(C(N)=O)c2)CC1 | inconclusive: 29.1 µM [falling, single point] |
| CC1=C(SCCC#N)S/C(=C2\SC(C)=C(SCCC#N)S2)S1 | inconclusive: 16.4 µM [falling, single point] |
| Cc1cccc(CS(=O)(=O)c2ncc(Cl)c(C(=O)Nc3nc4ccc(F)cc4s3)n2)c1 | inconclusive: 25.9 µM [falling, partial curve, poor fit] |
| COC(=O)C(C)NC(=O)N1CCN(c2nnc(C)c3c(C)n(-c4ccc(Cl)cc4)nc23)CC1 (configuration not stated) | inactive |
| Cc1cccc(NC(=O)c2cc3c(=O)n(Cc4ccco4)ccc3nc2C)c1 | inactive |
| CCc1cccc(C)c1NC(=O)Nc1c(Br)cnn1C | inconclusive: 25.9 µM [activator, partial curve, poor fit] |
| Cc1cccc(NC(=O)CSc2nc3ccc(NC(=O)COc4ccc(Cl)cc4)cc3s2)c1 | inconclusive: 23.1 µM [falling, single point] |
| CC(C)OC(=O)c1cc(NC(=S)Nc2ccc([N+](=O)[O-])cc2)cc(C(=O)OC(C)C)c1 | inconclusive: 18.4 µM [falling, single point] |
| C=CCOc1cccc(C2C(C(=O)c3ccco3)=C(O)C(=O)N2Cc2ccncc2)c1 (configuration not stated) | inactive |
| CCOC(=O)c1cc(-c2ccccc2)n(CCC(=O)Nc2ccc(C(F)(F)F)cc2)c1C | inconclusive: 29.1 µM [falling, single point] |
| CN(c1ncnc2c1c(-c1ccccc1)cn2-c1ccc(F)cc1)C1CCCCC1 | inconclusive: 29.1 µM [activator, single point] |
| COC(=O)Cc1c(-c2[nH]c3ccccc3c2CC(=O)OC)[nH]c2ccccc12 | inconclusive: 5.17 µM [activator, partial curve, poor fit] |
| Cc1cc2occ(CC(=O)N(C)CC(=O)Nc3ccc(F)cc3)c2cc1C | inconclusive: 23.1 µM [falling, single point] |
| O=[N+]([O-])c1ccc2c(c1N1CCCCC1)=NC1(CCCCC1)[N+]=2[O-] | inconclusive: 23.1 µM [falling, partial curve, poor fit] |
| CCOC(=O)C1CCN(Cc2ccc(-c3ccccc3)cc2)CC1 | inconclusive: 29.1 µM [falling, single point] |
| CCOC(=O)C1CCN(C2=C(NS(=O)(=O)c3ccc(Br)cc3)C(=O)c3ccccc3C2=O)CC1 | inactive |

| SMILES | Potency |
| --- | --- |
| Cc1ccccc1OCc1nc2ccccc2c(=O)n1/N=C/c1c[nH]c2ccccc12 | inconclusive: 20.6 µM [falling, single point] |
| O=C(CSc1nc(-c2cccs2)cc(C(F)(F)F)n1)NCc1ccccc1 | inactive |
| Clc1ccc(-n2ncc3c(NCc4ccccn4)ncnc32)cc1 | inconclusive: 2.31 µM [activator, partial curve, poor fit] |
| COc1ccc(C(=O)NNC(=O)C(=O)Nc2ccc(C)c(Cl)c2)cc1 | inconclusive: 18.4 µM [falling, partial curve, poor fit] |
| O=C(Nc1cccc(Cl)c1)N1CCN2C(=O)c3ccccc3C12c1ccccc1 (configuration not stated) | inconclusive: 29.1 µM [falling, single point] |
| NC(=O)NC(=O)CSc1nc2cc([N+](=O)[O-])ccc2n1-c1cccc(C(F)(F)F)c1 | inconclusive: 25.9 µM [falling, partial curve, poor fit] |
| COc1ccc(O)c(/C=N/NC(=O)CCC(=O)Nc2ccc(F)cc2)c1 | inconclusive: 6.51 µM [falling, partial curve, poor fit] |
| CCOC(=O)CC(NC(=O)CCc1c(C)nc2c(-c3ccccc3)c(C)nn2c1C)c1ccc(C)cc1 (configuration not stated) | inconclusive: 32.6 µM [falling, single point] |
| COc1ccc(-c2c3c(=O)n(C)c(=O)n(C)c3cn2-c2cccc(N)c2)cc1 | inactive |
| COc1ccc(-c2csc(NC(=O)c3ccccc3NS(=O)(=O)c3ccc(F)c(F)c3)n2)cc1 | inconclusive: 7.31 µM [falling, partial curve] |
| C[C@H](NC(=O)[C@H](Cc1ccccc1)NC(=O)c1cc2cc(Cl)ccc2n1C)C(=O)O | inactive |
| O=C(Nc1ccc(F)cc1)N1CCN(c2ccc3nnc(-c4ccc(F)cc4)n3n2)CC1 | inconclusive: 8.2 µM [falling, partial curve, poor fit] and inconclusive: 20.6 µM [falling, partial curve, poor fit] |
| C/C(=N\Nc1ncnc2sc(C)c(C)c12)c1ccccn1 | active: 23.1 µM |
| Cc1cc2n(n1)C(c1ccccc1)CC(c1ccc(Br)cc1)=N2 (configuration not stated) | inconclusive: 16.4 µM [activator, partial curve, poor fit] |
| Nc1nc(Cl)cc(N2CCC(c3cc(-c4ccc(Cl)cc4)n[nH]3)CC2)n1 | inconclusive: 20.6 µM [falling, single point] |
| CCN1CCN(Cc2ccc(NC(=O)c3ccc(C)c(NC(=O)c4csc(-c5ccncc5)n4)c3)cc2C(F)(F)F)CC1 | inconclusive: 16.4 µM [falling, partial curve, poor fit] |
| CC(C)[C@H](NC(=O)c1ccc(C(C)(C)C)cc1)C(=O)N1CCN(Cc2ccc3c(c2)OCO3)CC1 | inconclusive: 29.1 µM [falling, partial curve, poor fit] |
| Cc1ccc(CN2CCN(CCCn3cnc4c(OCc5ccccc5)ncnc43)CC2)cc1 | inconclusive: 23.1 µM [falling, single point] |
| CCOC(=O)c1c(C)oc2ncnc(N3CCN(c4ccc(C)cc4C)CC3)c12 | inactive |
| Cc1ccccc1CNC(=O)COc1ccccc1 | inconclusive: 23.1 µM [activator, partial curve] |
| CCN(CC)S(=O)(=O)c1ccc(OC)c(NC(=O)CSCc2c(C)noc2C)c1 | inactive |

| SMILES | Potency |
| --- | --- |
| CC(=O)N1c2ccc(S(=O)(=O)NCC3CCC(C(=O)Nc4cc(C)ccn4)CC3)cc2CC1C (configuration not stated) | inconclusive: 29.1 µM [falling, partial curve, poor fit] |
| Cc1ccccc1Cc1c(C)nc2nc(SCC(=O)NCCCN3CCCCC3)nn2c1C | inconclusive: 5.8 µM [activator, partial curve, poor fit] |
| CN(Cc1ccccc1)C(=O)c1[nH]cnc1C(=O)N[C@@H](CCCCNC(=O)OC(C)(C)C)C(=O)OC(C)(C)C | inconclusive: 29.1 µM [falling, partial curve, poor fit] |
| O=C(O)CC/C(=N/Nc1ncc(C(F)(F)F)cc1Cl)C(=O)O | inactive |
| O=C(Cn1cnc2c(cnn2-c2ccccc2)c1=O)NCc1ccccc1 | inconclusive: 20.6 µM [falling, partial curve, poor fit] |
| Cc1ccc(C)c(Nc2nn3c(=O)c4ccc(C(=O)NCCC5=CCCCC5)cc4nc3s2)c1 | inactive |
| O=C(Cc1cccs1)Nc1nc(-c2ccc(F)cc2F)cs1 | inconclusive: 29.1 µM [falling, single point] |
| CCOc1ccc(N2C(=O)C3C(c4ccccc4)=NN(c4ccccc4)C3C2=O)cc1 (configuration not stated) | inactive |
| O=C(COc1ccc(Cl)cc1Br)NC1CC1 | inconclusive: 23.1 µM [activator, single point] |
| CCS(=O)(=O)N1CCc2cc(C(=O)NCc3ccc(Cl)cc3)ccc21 | inactive |
| Clc1ccc(C(c2nnnn2C2CCCCC2)N(Cc2cccnc2)Cc2ccco2)cc1 (configuration not stated) | inconclusive: 14.6 µM [falling, partial curve, poor fit] |
| O=C(CN1C(=O)c2ccccc2S1(=O)=O)NCCSCc1c(F)cccc1Cl | inactive |
| Cc1csc(SC(C)C(=O)Nc2ccc3c(c2)OCCO3)n1 (configuration not stated) | inconclusive: 25.9 µM [activator, partial curve, poor fit] |
| CC1=Nc2ccccc2/C1=C/c1c(C)[nH]c2ccccc12 | inconclusive: 20.6 µM [falling, single point] |
| COc1cc([N+](=O)[O-])cc(/C=N/N(CCC#N)C(C)=O)c1O | inconclusive: 16.4 µM [falling, partial curve, poor fit] |
| O=C(OCc1ccccc1Cl)C1CC(=O)N(Cc2ccco2)C1 (configuration not stated) | inactive |
| CC(C)(C)OC(=O)[C@H](Cc1ccccc1)NC(=O)c1nc[nH]c1C(=O)N[C@@H](Cc1ccccc1)C(=O)OC(C)(C)C | inconclusive: 29.1 µM [falling, single point] |
| CC[C@]12c3[nH]c4ccccc4c3CCN1C(=O)C(CC(=O)NCC13CC4CC(CC(C4)C1)C3)C[C@@H]2C(=O)N1CCN(C(=O)c2ccco2)CC1 (some centres not stated) | inconclusive: 29.1 µM [falling, single point] |
| CC(=O)N1CC2(NC(=O)c3ccccc3N2)c2ccccc21 (configuration not stated) | inactive |
| COc1ccc(/C=C(\C#N)c2c[nH]c3ccccc23)cc1 | inconclusive: 2.06 µM [falling, partial curve, poor fit] |
